# Laboratory results reported in the supplement of paper PMC7125110.
# ± gives the standard error. The uncertainty is large for many entries.
# B1: glmS ribozyme (parent)
# chain: AUAAAAGCGCCAGAACUACAGAAAUGUAGUUGACGAGGAGGAGGUUUAUCGAAUUUUCGGCGGAUGCCUCCAAA
# Variants of: B1
# Test: KM; higher = weaker cofactor use; RNA array
# Settings: with glucosamine-6-phosphate
# Summary of the method: (§1)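 Tiles of sequenced MiSeq chips were imaged over ~14 h at 37 °C. On them, barcoded ribozyme variants had been transcribed in situ by E. coli RNA polymerase and were tracked via a hybridised Cy3 probe while glucosamine-6-phosphate (40 μM to 10 mM) in HEPES/KCl/Mg(OAc)2 buffer flowed in. Per-tile medians, normalised to baseline and to non-cleaving reference variants, were fit to one- or two-exponential decays for kobs, and weighted Michaelis–Menten fits gave kcat and KM.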
row,Variant,KM
1,U46C,1410 ± 170 µM
2,U45A G66A,527 ± 280 µM
3,U57A C67U,3210 ± 1900 µM
4,C61U G63C,50.7 ± 35 µM
5,A42G G66A U69A,1590 ± 490 µM
6,A48U G66U,1230 ± 730 µM
7,G40U A53G,1010 ± 690 µM
8,G43A U45G,1540 ± 1000 µM
9,C50U A53C U54G,48.8 ± 27 µM
10,G59A C70U,1970 ± 320 µM
11,A53G U55G,2460 ± 1400 µM
12,A53G U55C,1230 ± 510 µM
13,A39U G40A,1880 ± 1200 µM
14,U56A U57G,3270 ± 1800 µM
15,G41C U54A,384 ± 360 µM
16,U54A U65G,2600 ± 1400 µM
17,A53C G59C,236 ± 200 µM

row,Variant,KM
1,U45A C50U,34700 ± 17000 µM
2,U56A C58A,8870 ± 6200 µM
3,G40U U56G,1680 ± 940 µM
4,C68U C71A,89.6 ± 72 µM
5,U45C U56A,1520 ± 800 µM
6,U45C U56C,5500 ± 810 µM
7,C58A C67G,315 ± 310 µM
8,A64G,2080 ± 150 µM
9,U46G U69A,142 ± 100 µM
10,A42U U46G,901 ± 260 µM
11,G40C U56C,1990 ± 1300 µM
12,C50U A64G,10200 ± 2700 µM
13,A53G G59A,4360 ± 1300 µM
14,G41U A53C,2500 ± 1600 µM
15,C71G,1460 ± 470 µM
16,U45C C70G,14200 ± 4600 µM

# Variants of: B1
# Test: self-cleavage kobs at 40 uM GlcN6P; higher = faster cleavage; RNA array
# Settings: with glucosamine-6-phosphate
# Summary of the method: as §1
row,Variant,self-cleavage kobs at 40 uM GlcN6P
1,U47A U65G U69C,3.69e-05 ± 1.9e-05 s⁻¹
2,A14U C16G,1.99e-05 ± 1e-05 s⁻¹
3,G13A A53G,2.34e-05 ± 1.5e-05 s⁻¹
4,G7A U30G C70G C71G,5.58e-05 ± 3e-05 s⁻¹
5,C50U C68G,1.64e-05 ± 1.2e-05 s⁻¹
6,G32U C70G,1.5e-05 ± 1.3e-05 s⁻¹
7,C50G U57C G66A,2.64e-05 ± 2.3e-05 s⁻¹
8,U56G C58G C68G,3.22e-05 ± 2.8e-05 s⁻¹
9,G13A G32U G38C U69G,3.18e-05 ± 2e-05 s⁻¹
10,A39G G59A C61U C68G,3.41e-05 ± 2.7e-05 s⁻¹
11,C10U C11G U30A U69G,2.71e-05 ± 1.9e-05 s⁻¹
12,A6C C50G U65A,4.58e-05 ± 2.7e-05 s⁻¹
13,A6U C50G A53C C71A,2.79e-05 ± 2.8e-05 s⁻¹
14,C11U U30C C50U C67A,7.47e-05 ± 4.5e-05 s⁻¹
15,A39U U65A,2.42e-05 ± 1.5e-05 s⁻¹
16,C16G C50G,3e-05 ± 2.1e-05 s⁻¹
17,G9C U65A C68G,4.11e-05 ± 2.4e-05 s⁻¹
18,C67G C68A,1.5e-05 ± 1.1e-05 s⁻¹
19,G32A U55C,1.88e-05 ± 1e-05 s⁻¹
20,U45C U56A,1.61e-05 ± 9.4e-06 s⁻¹
21,C58A C67G,2.07e-05 ± 1.4e-05 s⁻¹
22,U57G U69G,1.81e-05 ± 1.6e-05 s⁻¹
23,A12C U46A,2.04e-05 ± 1.2e-05 s⁻¹
24,A36U G40A G43C A52G,6.58e-05 ± 3.4e-05 s⁻¹
25,A14U G35U C50U C58G G62U C71G,6.61e-05 ± 5e-05 s⁻¹
26,A12U G13A A48G U56C U65A C67A C71G,3.48e-05 ± 1.9e-05 s⁻¹
27,C50G G60A,1.95e-05 ± 1.2e-05 s⁻¹
28,U31G U47C U54A,3.09e-05 ± 1.7e-05 s⁻¹
29,G32A C50U C70A,2.4e-05 ± 2.1e-05 s⁻¹

# Quoted from the listing.
# Entry for G9C U65A C68G under self-cleavage kobs at 40 uM GlcN6P: 4.11e-05 ± 2.4e-05 s⁻¹
# Entry for C11U U30C C50U C67A under self-cleavage kobs at 40 uM GlcN6P: 7.47e-05 ± 4.5e-05 s⁻¹
# Entry for A39G G59A C61U C68G under self-cleavage kobs at 40 uM GlcN6P: 3.41e-05 ± 2.7e-05 s⁻¹
# Entry for U45C U56A under self-cleavage kobs at 40 uM GlcN6P: 1.61e-05 ± 9.4e-06 s⁻¹

# Variants of: B1
# Test: self-cleavage kobs at 640 uM GlcN6P; higher = faster cleavage; RNA array
# Settings: with glucosamine-6-phosphate
# Summary of the method: as §1
row,Variant,self-cleavage kobs at 640 uM GlcN6P
1,U47A U65G U69C,0.000253 ± 0.00013 s⁻¹
2,A6U A52G C68U,4.52e-05 ± 3.3e-05 s⁻¹
3,A14C G29U C61A C68U,2.73e-05 ± 2.2e-05 s⁻¹
4,C10A G13U C68A,0.000233 ± 0.00016 s⁻¹
5,C11U G51A C67G,7.99e-05 ± 4.5e-05 s⁻¹
6,A6U U49G U56G C67U C70G,3.02e-05 ± 2.4e-05 s⁻¹
7,G7U C10U G37A C67A,3.14e-05 ± 2.5e-05 s⁻¹
8,G9U C16A C34A C50G,5.11e-05 ± 3.4e-05 s⁻¹
9,A12U G44C A53U,3.21e-05 ± 2.4e-05 s⁻¹
10,C10A A14G U31C A36U A64C C67G,0.000222 ± 0.00011 s⁻¹
11,A12G U30A,1.81e-05 ± 1.4e-05 s⁻¹
12,C16G C50G,0.000637 ± 0.00033 s⁻¹
13,C11A G51U U65C C68U,3.38e-05 ± 2e-05 s⁻¹
14,A12G A15U C71G,2.84e-05 ± 1.5e-05 s⁻¹
15,G13C U55A C70A,0.000501 ± 0.00032 s⁻¹
16,A6U G13C C70G,2.98e-05 ± 2.2e-05 s⁻¹
17,C50G G60A,2.44e-05 ± 1.7e-05 s⁻¹
18,C11U A15G G37C U47C U69G,0.000554 ± 0.00029 s⁻¹
19,G32A C50U C70A,4.23e-05 ± 3e-05 s⁻¹

# Variants of: B1
# Test: self-cleavage kobs at 160 uM GlcN6P; higher = faster cleavage; RNA array
# Settings: with glucosamine-6-phosphate
# Summary of the method: as §1
row,Variant,self-cleavage kobs at 160 uM GlcN6P
1,U57A C67U,1.85e-05 ± 1.6e-05 s⁻¹
2,C16G C50G,0.000157 ± 0.00015 s⁻¹
3,G9C U65A C68G,0.000225 ± 0.00014 s⁻¹

# Variants of: B1
# Test: self-cleavage kobs at 2500 uM GlcN6P; higher = faster cleavage; RNA array
# Settings: with glucosamine-6-phosphate
# Summary of the method: as §1
row,Variant,self-cleavage kobs at 2500 uM GlcN6P
1,A48U G66U,2.14e-05 ± 1.7e-05 s⁻¹
2,G9C U65A C68G,4.97e-05 ± 2.7e-05 s⁻¹
3,C68U C71A,1.12e-05 ± 8.7e-06 s⁻¹
4,C11A G51U U65C C68U,4.36e-05 ± 2.8e-05 s⁻¹

# Variants of: B1
# Test: self-cleavage kobs at 10000 uM GlcN6P; higher = faster cleavage; RNA array
# Settings: with glucosamine-6-phosphate
# Summary of the method: as §1
row,Variant,self-cleavage kobs at 10000 uM GlcN6P
1,A39G G59A C61U C68G,2.45e-05 ± 2.4e-05 s⁻¹
2,C11U U30C C50U C67A,2.39e-05 ± 1.7e-05 s⁻¹
3,C68U C71A,1.05e-05 ± 8.5e-06 s⁻¹
4,U57G U69G,1.55e-05 ± 1.2e-05 s⁻¹
5,A12U G13A A48G U56C U65A C67A C71G,2.34e-05 ± 1.5e-05 s⁻¹
6,C50G G60A,0.000722 ± 0.00049 s⁻¹
7,G32A C50U C70A,1.83e-05 ± 1.6e-05 s⁻¹
